# Laboratory results taken from patent US9598389B2, “Dihydrobenzofuran derivatives as insecticidal compounds” (SYNGENTA PARTICIPATIONS AG, priority 2013, dated 2017).
# Some results were stated once for a whole list of compounds, not compound by compound. For at least one compound, name, drawing or mass did not settle the structure.
# Experiments:
# Assay type in all cases: in vivo
# [1] = system: Diabrotica balteata (Corn Root Worm); assay: Diabrotica balteata L2 larvae test on artificial diet; conditions: application rate of 200 ppm, 5 days after infestation
# Experimental: Diabrotica balteata (Corn Root Worm):
# (§1) 24-well microtiter plates with artificial diet were treated with aqueous test solutions prepared from 10,000 ppm DMSO stock solutions by pipetting. After drying, the plates were infested with L2 larvae (6 to 10 per well). The samples were assessed for mortality and growth inhibition in comparison to untreated samples 5 days after infestation.
# [2] = system: Spodoptera Littoralis (Egyptian Cotton Leaf Worm); assay: Spodoptera littoralis cotton leaf disc spray test; conditions: application rate of 200 ppm; L1 larvae; 3 days after infestation
# [3] = system: Thrips tabaci (Onion Thrips); assay: Thrips tabaci sunflower leaf disc spray test; conditions: application rate of 200 ppm; population of mixed ages; 6 days after infestation
# Experimental: Thrips tabaci (Onion Thrips):
# Sunflower leaf discs were placed on agar in 24-well microtiter plates and sprayed with aqueous test solutions prepared from 10,000 ppm DMSO stock solutions. After drying the leaf discs were infested with a thrips population of mixed ages. The samples were assessed for mortality 6 days after infestation.
# [4] = system: Heliothis virescens (Tobacco Budworm); assay: Heliothis virescens egg/larval test on artificial diet; conditions: application rate of 200 ppm; eggs 0-24 h old; 5 days after infestation
# Experimental: Heliothis virescens (Tobacco Budworm):
# Eggs (0-24 h old) were placed in 24-well microtiter plates on artificial diet and treated with aqueous test solutions prepared from 10,000 ppm DMSO stock solutions by pipetting. The samples were assessed for egg and larval mortality 5 days after infestation.
# [5] = system: Plutella xylostella (Diamond Back Moth); assay: Plutella xylostella L2 larvae test on artificial diet; conditions: application rate of 200 ppm, 5 days after infestation
# Experimental: Plutella xylostella (Diamond Back Moth):
# as §1, with “larvae (10” for “larvae (6”, “to 15” for “to 10”
Structure (SMILES),effect in at least one of the two categories (mortality or growth inhibition) [1],"control (at least one of mortality, anti-feedant effect, growth inhibition) [2]",mortality [3],egg or larval mortality [4],effect in at least one of the two categories (mortality or growth inhibition) [5]
CCC(=O)Nc1cc(F)cc(-c2ccc3c(c2)CC(c2cc(Cl)cc(Cl)c2)(C(F)(F)F)O3)c1 (centres unmarked) [Compound 154],≥ 80%,at least 80%,≥ 80%,≥ 80%,≥ 80%
CC(C)C(=O)Nc1cccc(-c2cc3c(cc2C#N)OC(c2cc(Cl)cc(Cl)c2)(C(F)(F)F)C3)c1 (centres unmarked) [Compound 232],≥ 80%,at least 80%,≥ 80%,≥ 80%,≥ 80%
O=C(Nc1cc(-c2ccc3c(c2)CC(c2cc(Cl)cc(Cl)c2)(C(F)(F)F)O3)c(F)cc1F)C1CC1 (centres unmarked) [Compound 200],≥ 80%,at least 80%,≥ 80%,≥ 80%,≥ 80%
CC(CF)C(=O)Nc1cccc(-c2ccc3c(c2)CC(c2cc(Cl)cc(Cl)c2)(C(F)(F)F)O3)c1 (centres unmarked) [Compound 144],≥ 80%,at least 80%,≥ 80%,≥ 80%,≥ 80%
N#Cc1ccc(-c2ccc3c(c2)CC(c2cc(C(F)(F)F)cc(C(F)(F)F)c2)(C(F)(F)F)O3)cc1NC(=O)CC(F)(F)F (centres unmarked) [Compound 219],≥ 80%,at least 80%,≥ 80%,≥ 80%,≥ 80%
CC(=O)Nc1cc(-c2ccc3c(c2)CC(c2cc(C(F)(F)F)cc(C(F)(F)F)c2)(C(F)(F)F)O3)c(F)cc1F (centres unmarked) [Compound 214],≥ 80%,at least 80%,≥ 80%,≥ 80%,≥ 80%
CCC(=O)Nc1cc(-c2ccc3c(c2)CC(c2cc(C(F)(F)F)cc(C(F)(F)F)c2)(C(F)(F)F)O3)c(F)cc1F (centres unmarked) [Compound 212],≥ 80%,at least 80%,≥ 80%,≥ 80%,≥ 80%
CC(=O)N(C(C)=O)c1cc(-c2ccc3c(c2)CC(c2cc(C(F)(F)F)cc(C(F)(F)F)c2)(C(F)(F)F)O3)ccc1C#N (centres unmarked) [Compound 221],≥ 80%,at least 80%,≥ 80%,≥ 80%,≥ 80%
COCCC(=O)Nc1cccc(-c2ccc3c(c2)CC(c2cc(Cl)cc(Cl)c2)(C(F)(F)F)O3)c1 (centres unmarked) [Compound 145],≥ 80%,at least 80%,≥ 80%,≥ 80%,≥ 80%
O=C(CC(F)(F)F)Nc1cc(-c2ccc3c(c2)CC(c2cc(Cl)cc(Cl)c2)(C(F)(F)F)O3)ccc1F (centres unmarked) [Compound 186],≥ 80%,at least 80%,≥ 80%,≥ 80%,≥ 80%
CCC(=O)Nc1cccc(-c2ccc3c(c2)CC(c2cc(C(F)(F)F)cc(C(F)(F)F)c2)(C(F)(F)F)O3)c1 (centres unmarked) [Compound 174],≥ 80%,at least 80%,≥ 80%,≥ 80%,≥ 80%
O=C(Nc1cccc(-c2cc3c(cc2Cl)OC(c2cc(Cl)cc(Cl)c2)(C(F)(F)F)C3)n1)C1CC1 (centres unmarked) [Compound 178],≥ 80%,at least 80%,≥ 80%,≥ 80%,≥ 80%
CC(=O)Nc1ccc(F)c(-c2ccc3c(c2)CC(c2cc(Cl)cc(Cl)c2)(C(F)(F)F)O3)c1 (racemic) [Compound 95],≥ 80%,at least 80%,≥ 80%,≥ 80%,≥ 80%
O=C(CC(F)(F)F)Nc1cc(F)cc(-c2ccc3c(c2)CC(c2cc(Cl)cc(Cl)c2)(C(F)(F)F)O3)c1 (racemic) [Compound 94],≥ 80%,at least 80%,≥ 80%,≥ 80%,≥ 80%
O=C(CC(F)(F)F)Nc1cc(-c2ccc3c(c2)CC(c2cc(C(F)(F)F)cc(C(F)(F)F)c2)(C(F)(F)F)O3)ccc1Cl (centres unmarked) [Compound 224],≥ 80%,at least 80%,≥ 80%,≥ 80%,≥ 80%
O=C(Nc1cc(-c2ccc3c(c2)CC(c2cc(Cl)cc(Cl)c2)(C(F)(F)F)O3)ccc1F)C1CC1 (centres unmarked) [Compound 151],≥ 80%,at least 80%,≥ 80%,≥ 80%,≥ 80%
CC(C)C(=O)Nc1cc(-c2ccc3c(c2)CC(c2cc(C(F)(F)F)cc(C(F)(F)F)c2)(C(F)(F)F)O3)ccc1F (centres unmarked) [Compound 217],≥ 80%,at least 80%,≥ 80%,≥ 80%,≥ 80%
O=C(Nc1cc(-c2ccc3c(c2)CC(c2cc(Cl)cc(Cl)c2)(C(F)(F)F)O3)cnc1Cl)C1CC1 (centres unmarked) [Compound 237],≥ 80%,at least 80%,≥ 80%,≥ 80%,≥ 80%
COCCC(=O)Nc1cccc(-c2ccc3c(c2)CC(c2cccc(C(F)(F)F)c2)(C(F)(F)F)O3)c1 (centres unmarked) [Compound 148],≥ 80%,at least 80%,≥ 80%,≥ 80%,≥ 80%
